The text below walks through data of patent US20120202840A1, “Use of Flubendazole and Vinca Alkaloids for Treatment of Hematological Diseases” (priority 2009, published 2012).

Broadly, the IC50 is the midpoint of a concentration-inhibition curve.

What all share (assay type): cell-based
One assay deals with A549. Put plainly: MTS assay, A549. Particulars: Homo sapiens. The protocol: (§1) Next, whether microtubule inhibition was functionally important for flubendazole's cytotoxicity was determined.
(§2) Leukemia (U937, MDAY, CEM, CEM-VBL) and solid tumor cell lines (PPC-1, HeLa) were cultured in RPMI 1640 medium. The epidermoid carcinoma cell lines KB-3-1 and KB-4.0-HTI^23 were grown in Dulbecco's Modified Eagle Medium. The lung carcinoma cell lines A549 and A549.EpoB40 were grown in RPMI with the latter supplemented with 20% fetal calf serum (FCS), and 40 nM epothilone B.^24 Leukemia cell lines OCI-AML2, CEM, and NB4 and all the myeloma cell lines (OPM2, KMS11, JJN3 LP1, H929, L1, KMS12, KSM18 and OCI My5) were maintained in Iscove's Modified Dulbecco's Medium (IMDM). TEX cells were maintained in IMDM, 15% FCS, 1% penicillin-streptomycin, 2 mM L-glutamine, 20 ng/mL SCF, 2 ng/mL IL-3. Unless otherwise noted, all media were supplemented with 10% FCS, 100 units/mL of streptomycin and 100 μg/mL of penicillin (all from Hyclone, Logan, Utah). Cells were incubated in a humidified air atmosphere containing 5% CO2 at 37° C.
(§3) Cell growth and viability was measured using the 3-(4,5-dimethylthiazol-2-yl)-5-(3-carboxymethoxyphenyl)-2-(4-sulfophenyl)-2H-tetrazolium inner salt (MTS) reduction assay (Promega, Madison, Wis.) according to the manufacture's protocol and as previously described^25. […] Optical density (OD) was measured at 490 nm.
A general note: Tetrazolium dyes change colour on reduction, which living cells bring about.

A further assay relates to A549.EpoB40. Description: MTS assay, A549.EpoB40 (β-tubulin mutant). The method, then: as §1, §2, §3
A further assay has as its system KB-4.0-HTI. Description: MTS assay, KB-4.0-HTI (α-tubulin mutant). The method, then: as §1, §2, §3
In another assay the test system is KB-3-1. Description: MTS assay, KB-3-1 wild type. To be noted: Homo sapiens. The method, then:
as §1, §2, §3

Where [1] appears, read: ratio of IC50 values of Table 1.

Take `COc1cc2c(c(OC)c1OC)-c1ccc(OC)c(=O)cc1[C@@H](NC(C)=O)CC2` [colchicine]: the IC50 worked out at 0.09 ± 0.01 µM in the assay on A549, 0.06 ± 0.01 µM with A549.EpoB40, 41.6 ± 5.5 µM with KB-4.0-HTI and 14.9 ± 4.5 µM in the assay on KB-3-1. For the same compound, in the assay with A549.EpoB40 (setting [1]), the “IC50 lower in A549.EpoB40 than in A549 control cells” value stood at 1.5 fold. Further, in the assay on KB-4.0-HTI (setting [1]), the “IC50 higher in KB-4.0-HTI than in KB-3-1 wild type cells” value was determined as 2.5 fold.
